We go through 69 sequences from PubChem BioAssay AID1508600 (Functional Genomics Laboratory (NCATS/FGL), 2020).

Hit rate of the full screen: of about 53,000 sequences, about 3,700 (7%) were called active.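 How the source made its calls: active means gene knockdowns whose robust z-score for IL-1 alpha signal is at least 2 or at most -2, so actives lie on both sides; inactive means the rest.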 Some of the results follow.

The nature of the assay: Components of the Cytosolic LPS Sensing Pathway: Gene Identification via Genome-wide siRNA Screen.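 Further: robust z of the log signal after scaling to non-targeting control siRNA wells of the plate.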 Conditions: RAW264.7 macrophages, IL-1a HTRF, actives lie on both sides, screened at 100 nM (by protocol), cells primed 5 h with Pam3CSK4 first. The essentials: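 Cells (RAW264.7, 1×10^4 per well) were transfected with siRNA at 100 nM and cultured 48h at 37 degrees C. Pam3CSK4 was added for 5 hours; LipidA transfection followed for 24 hour. IL-1a was then measured by HTRF.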
For the sequence GCUACCUCUCGUAGUAAAATT against Sgk2, the z-score is inactive: -0.911.

Regarding GAUACAGACCUUGCUCUUCTT against Olfr714, the z-score was inactive: -0.421.

As to GGAACAAGAACAAGUUGAGTT against Spa17, the z-score was inactive: 0.389.

With CCGAGUCUUGAACUAGGCATT against Six2, the z-score was active: -2.01.

As to CGCAGUAGCGAAGAAUUACTT against Sel1l3, the z-score was active: 2.46.

In the case of GGAAGAGCGAGAGACCUUGTT against Hnf1a, the z-score was inactive: -0.295.

For CCGGAUUGAAGAGUUGUAUTT against Tefm, the z-score was inactive: -0.827.

GGUUAAACUACAACAGUUGTT against Tmco5: the z-score is inactive: 1.04.

For the sequence GCCAAUCGGCAUCUUCCUUTT against Bcar1, the z-score is inactive: -1.71.

GGUGAUUGGGAAUUGAAAATT against F3: the z-score was inactive: 0.341.

Turning to GCCAGUCAUUCAGUAAAGUTT against Mysm1, the z-score is inactive: -1.15.

Turning to GGCUACAUGUGAUUUCUCUTT against Ttc7, the z-score is inactive: -0.272.

For the sequence GCUCCUCGGUCUUUCAUGUTT against Nemp2, the z-score is inactive: -1.82.

Turning to GGCCCUGAACUGGUUUUGUTT against Osbpl10, the z-score was inactive: -0.119.

Turning to GGAAGCAGUGGAGAAACCATT against Rfc4, the z-score was inactive: -1.52.

Turning to GGCAGGUGUAAAAUGUAAATT against Hpgd, the z-score is inactive: 0.349.

Consider GGAAGUCAAGAUCUCACCUTT against Lrrc25, for which the z-score was inactive: -0.864.

In the case of GGACCAUAAGCGACCCAAATT against Lmx1a, the z-score is inactive: -1.27.

For GGAAGAUGGCAAUAAUAACTT against Borcs7, the z-score is active: -2.26.

As to GGCAGGAAUGACUCCUUUUTT against Rtf2, the z-score is inactive: 1.27.

With GCACUAGCAGACUAGGUGATT against Zbtb26, the z-score is active: -2.07.

With GGGAGAUGAUUAGUUCAUUTT against Mad1l1, the z-score was inactive: 0.654.

For the sequence GGUUUAGAACUGGUAGAGCTT against Asgr1, the z-score was inactive: 0.72.

For GGAAGUCAAGUACUGUAGCTT against Usp16, the z-score is inactive: 0.0965.

As to GGCUCUUUUCUCUUUGCUGTT against Gpr157, the z-score is inactive: 0.932.

Consider GGCAUAACUGAUCAUACGCTT against Foxp3, for which the z-score was inactive: -0.599.

Take GGGUGUCUAUGAUUCUACATT against Add1: the z-score is inactive: 0.292.

As to GGAGAUUCUCCAUAACCUGTT against Rnf135, the z-score is active: 2.29.

With CCCAAGAGUGAGAUGACCCTT against Snrpd2, the z-score is inactive: -1.46.

Consider GCUUCGUGAGCAAAUCCUATT against Ccdc126, for which the z-score is inactive: 0.852.

GGUAAUGAAAAGCAUUGAATT against Epha1: the z-score is inactive: 1.38.

For CCUUCAAGUACUUUCUCCGTT against Dcakd, the z-score was inactive: 1.22.

In the case of GGCCAACUUUUUUCACCCATT against Git1, the z-score was active: -2.19.

In the case of GGAACAUUCUCUCCUUAUGTT against Ctps, the z-score is inactive: -0.168.

As for GGACCUGAAGGCUGAAAUUTT against Ing4, the z-score was active: 3.08.

Consider GCAGGUGAAAAGCAAUCCUTT against Prss27, for which the z-score is inactive: 1.03.

On to GGGUCACCAAUCCCAUCAATT against Nags, for which the z-score is inactive: 0.144.

Regarding “GGAACAGCAUCGUAACUAUTT against Csgalnact1”, the z-score is inactive: -0.747.

Take CCACCUAUGAAUUAACACATT against Sdk1: the z-score was inactive: -1.05.

In the case of GGCUUAGCUUUUGUGAUUCTT against Olfr143, the z-score is inactive: -1.24.

On to GGAGAGACUCAGGAGUUUUTT against Rnd2, for which the z-score is active: 2.74.

Regarding GGAAAGUGAUUUUUGGAUCTT against Fpr-rs7, the z-score was inactive: 0.0196.

Regarding GCAUUGUGCUUUUGACAACTT against Abca15, the z-score was inactive: -0.173.

As to GCCGGAGGUUACAGCAAAGTT against Dmrt1, the z-score was inactive: -0.296.

Consider GGCAUGAUGAAGCUAUUCGTT against Yipf6, for which the z-score was inactive: 0.0872.

For the sequence “GACAGUGAAGGCUUGCCAUTT against 1700019M22Rik”, the z-score was inactive: -0.45.

Consider GGAUGUGCGGAACUUUAAGTT against Ccr7, for which the z-score is inactive: -0.192.

Turning to GGUCCAACAUGUCUACCCATT against Rfx3, the z-score was inactive: -1.47.

For the sequence GGCAUCUUCCUUUAAAAAGTT against Gar1, the z-score is inactive: -0.708.

Regarding GGGAUUACCGUGAUUGAUGTT against Fam78a, the z-score was inactive: -1.

GGGUGUUCAUAAAUGGUAUTT against Grb2: the z-score was inactive: 0.654.

For GCGAAAUCAUGACAAAUUCTT against Tulp3, the z-score was inactive: 0.368.

Take CGUGCUUAGCAAUCUGAAUTT against Bcl6b: the z-score is active: 2.44.

Turning to GGCCAGACAAAUGAUGCCATT against Slc25a30, the z-score is active: -3.04.

With CCCACAAAAUACCAAAUCCTT against Klk1b27, the z-score was inactive: -1.74.

Turning to GGUUCCUAGGUUUUAGAAATT against Olfr631, the z-score was inactive: 0.659.

Take GCAUUACGGCGUGUUCACCTT against Nr2f6: the z-score was inactive: 1.58.

For the sequence GGUUCUAUAGGGCUCCGAATT against Tmem179b, the z-score was active: 4.23.

Regarding GCGAACGAAGCAUAAAUGGTT against Mettl1, the z-score was inactive: 1.62.

Take CCAACUUCAAAACUAUCGUTT against Trp53bp1: the z-score is active: 2.19.

GGAGUUGGUGAAGCAGCUUTT against Arhgap25: the z-score is inactive: -0.185.

For CCCUUAUUGAUUCUUCAAGTT against Ngp, the z-score is inactive: 0.342.

For GGCAAUCCAGGCAAUAUCATT against C1qa, the z-score is inactive: -0.808.

For CCGUAGAGAUCAACAACACTT against Npepl1, the z-score is inactive: 0.799.

With CGAGUUGCUCGUGUUCAGUTT against Ndufa1, the z-score is inactive: 0.794.

Take GGAGUUCCACUUUCCAGUUTT against Dbndd2: the z-score is inactive: 1.11.

In the case of CCAUGAGAACCUGAUGAAUTT against Pag1, the z-score was active: -2.38.

For GGGUUCUGUUACAAUUCCATT against Defb11, the z-score is inactive: 0.921.

GGAGUGUGAGGUCCUCUCUTT against Sdsl: the z-score was inactive: 1.85.
